For at least one entry, the source does not settle the construct or the ends of the probe. A weaker result is weaker than the reference pair of the same experiment.

Consider 1 sequence from publication PMC6077249, “Insights into Centromere DNA Bending Revealed by the Cryo-EM Structure of the Core Centromere Binding Factor 3 with Ndc10”.

Data set [1] deals with Ctf13 R307A-R308A-R330A + Skp1 + Cep3ΔN K265A-K364A. The experiment in a line: EMSA. The following applies: DNA 1.6 uM, weaker than Ctf13 triple mutant complex; EMSA: 25 mM HEPES pH 8.0, 200 mM KCl, 2 mM DTT, 10% glycerol, 0.02% NP-40, 10 mM MgCl2, 10 uM ZnCl2; room temperature 45 min; native PAGE at 4 C; recombinant protein; protein details: C-terminal CBP,N-terminal His; label: fluorescent label, singly or doubly labeled. For orientation: A gel shift assay detects complexes by their altered migration in electrophoresis.

Data set [2] deals with Ctf13 R307A-R308A-R330A + Skp1 + Cep3ΔN. Kind of data set: EMSA. As to conditions: DNA 1.6 uM; EMSA: 25 mM HEPES pH 8.0, 200 mM KCl, 2 mM DTT, 10% glycerol, 0.02% NP-40, 10 mM MgCl2, 10 uM ZnCl2; room temperature 45 min; native PAGE at 4 C; recombinant protein; protein details: C-terminal CBP,N-terminal His; label: fluorescent label, singly or doubly labeled.

Consider “AATATTAGTGTATTTGATTTCCGAAAGTTAAA (double strand) [CDEIII labeled]”, for which the binding result in data set [1] and in data set [2] was “binds more weakly” in each case.
